These are yes or no findings as the source states them, for the method shown. A result given as binding can be weak or reduced; the word gives no strength.
Biological target: soluble HLA-B*0702 (human)
Assay: fluorescence polarization competition on soluble HLA-B*0702

| Binder | binding |
| --- | --- |
| NSRPPAVIL [C35 peptide N107 to L115 (analog with Ala substituted for Cys at 112)] | binds |
| EPGQTSVAP [C35 peptide E4 to P12] | binds |

Now from value to binder:

| binding | Binder |
| --- | --- |
| binds | TGAFEIEIN [C35 peptide T62 to N70] |
| binds | GAFEIEING [C35 peptide G63 to G71] |

Biological target: HLA-A*0201 (human)
Assay: fluorescence polarization competition, test peptide at 100 µM

| Binder | binding |
| --- | --- |
| SVAPPPEEV [C35 peptide S9 to V17] | binds |
| TYLELASAV [C35 peptide T38 to V46] | binds |
| FEIEINGQL [C35 peptide F65 to L73] | binds |

Now from value to binder:

| binding | Binder |
| --- | --- |
| binds | SGVRIVVEY [C35 peptide S21 to Y29] |
| binds | GTGAFEIEI [C35 peptide G61 to I69] |
